Reference: PubChem BioAssay AID504808 (Drosophila RNAi Screening Center, 2011)
Screen: 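Genes whose loss lifts activity of an E2F-responsive reporter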 (primary screen). Cells: Drosophila S2 cells. Knock-down reagent: long dsRNA against Drosophila genes. Detection: 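Dual luciferase plate measurements; E2F-specific signal taken as firefly over Renilla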. Direction: E2F firefly: higher = more E2F reporter activity; Renilla normaliser: higher = more normaliser reporter signal. Rule for the call: 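a knock-down counted as active when the firefly/Renilla E2F signal rose above 50%, a threshold chosen arbitrarily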.
The screen tested about 21,000 reagents; this is a random part of those with a known target gene and a result. Of all reagents, 18 (0.084%) were called active. 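Raw counts without plate normalisation, one of two replicates; the ratio scores behind the calls were not deposited.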 A plus sign joins genes that one reagent is predicted to hit. No sequences are given here. Not stated in the record: the amount of reagent, the time to read-out.

Gene | dsRNA | E2F firefly, rep 1 | Renilla normaliser, rep 1 | Call
ey (GeneID 43812) | DRSC17173 | 53761 | 4188 | inactive
Prosalpha6T (GeneID 34726) | DRSC02873 | 1.01e5 | 4071 | inactive
CG42820 + CG42819 | DRSC02264 | 1.64e5 | 4811 | inactive
CG42820 + CG42819 | DRSC02265 | 1.42e5 | 4782 | inactive
Oseg2 (GeneID 38282) | DRSC08343 | 1.03e5 | 4584 | inactive
CG2200 (GeneID 32258) | DRSC19840 | 73962 | 4696 | inactive
CG13733 (GeneID 39951) | DRSC10061 | 1.77e5 | 7968 | inactive
Tsp47F (GeneID 36230) | DRSC07325 | 87644 | 4238 | inactive
Slc45-1 (GeneID 39055) | DRSC10427 | 79072 | 3730 | inactive
Cyp28d1 (GeneID 33749) | DRSC03298 | 83280 | 3882 | inactive
Dus3 (GeneID 35264) | DRSC02059 | 1.02e5 | 4279 | inactive
Mlc2 (GeneID 43587) | DRSC16741 | 1586 | 1076 | inactive
CG5402 (GeneID 43306) | DRSC15792 | 1.04e5 | 6273 | inactive
Oamb (GeneID 43982) | DRSC13433 | 96406 | 2731 | inactive
Oamb (GeneID 43982) | DRSC15120 | 1.25e5 | 6949 | inactive
Oamb (GeneID 43982) | DRSC16763 | 1.38e5 | 6881 | inactive
SkpB (GeneID 36298) | DRSC07683 | 1.03e5 | 4062 | inactive
CG9458 (GeneID 41214) | DRSC16495 | 1.28e5 | 5900 | inactive
CG10904 (GeneID 37817) | DRSC04084 | 1.03e5 | 4108 | inactive
Gycbeta100B (GeneID 43682) | DRSC14039 | 71407 | 2730 | inactive
Gycbeta100B (GeneID 43682) | DRSC14040 | 87676 | 2483 | inactive
Gycbeta100B (GeneID 43682) | DRSC16691 | 2096 | 940 | inactive
Zw10 (GeneID 47874) | DRSC18793 | 1794 | 992 | inactive
Sytalpha (GeneID 35068) | DRSC02869 | 1.10e5 | 4407 | inactive
TMEM216 + CG11760 | DRSC14375 | 75677 | 4222 | inactive
disp (GeneID 44274) | DRSC12376 | 1.32e5 | 6896 | inactive
fd3F (retired record) + Crg-1 | DRSC17283 | 88175 | 2820 | inactive
GABA-B-R2 (GeneID 42561) | DRSC14134 | 82694 | 3597 | inactive
CG4927 (GeneID 36852) | DRSC06903 | 1.54e5 | 5137 | inactive
rin (GeneID 47998) | DRSC17045 | 92516 | 4353 | inactive
mon2 (GeneID 326157) | DRSC03112 | 1.36e5 | 5316 | inactive
CG12699 (GeneID 36944) | DRSC06162 | 79625 | 3455 | inactive
Or22c (GeneID 33381) | DRSC00766 | 1.70e5 | 6137 | inactive
Achl (GeneID 36605) | DRSC06665 | 98951 | 4088 | inactive
holn1 (GeneID 34432) | DRSC02827 | 81349 | 3670 | inactive
RpL37-2 (GeneID 37669) | DRSC04584 | 1.01e5 | 3763 | inactive
Ocrl (GeneID 31157) | DRSC18576 | 1854 | 1004 | inactive
Akt (GeneID 41957) | DRSC14108 | 81739 | 3922 | inactive
CG32733 (retired record) + CG32797 | DRSC17705 | 81819 | 2730 | inactive
CG7080 (GeneID 42609) | DRSC16193 | 77260 | 3996 | inactive
Rbcn-3B (GeneID 31155) | DRSC18574 | 1.18e5 | 5806 | inactive
Mvb12 (GeneID 32791) | DRSC20027 | 1.56e5 | 5826 | inactive
beta4GalNAcTB (GeneID 43425) | DRSC14869 | 1.17e5 | 5514 | inactive
CG42662 + CG30080 | DRSC05571 | 1.36e5 | 4800 | inactive
CG15247 (GeneID 31919) | DRSC17976 | 1.24e5 | 5458 | inactive
CG32121 (GeneID 317867) | DRSC09265 | 1.24e5 | 4008 | inactive
CG17528 (GeneID 3355134) | DRSC07761 | 97723 | 4243 | inactive
alpha-Est5 (GeneID 40905) | DRSC12617 | 70857 | 3394 | inactive
CG43775 (GeneID 37863) | DRSC04206 | 1.19e5 | 4894 | inactive
Ndc80 (GeneID 32316) | DRSC20221 | 8640 | 740 | inactive
CG11052 (GeneID 49997) | DRSC14288 | 1.21e5 | 6232 | inactive
Sema1b (GeneID 37007) | DRSC07550 | 76520 | 3544 | inactive
CG11050 (GeneID 33924) | DRSC02125 | 65346 | 2929 | inactive
ninaA (GeneID 33271) | DRSC00830 | 78621 | 3809 | inactive
Nepl17 (GeneID 43408) | DRSC14880 | 1.12e5 | 6749 | inactive
CG31391 (GeneID 41280) | DRSC16047 | 1.25e5 | 5437 | inactive
beta3GalTII (GeneID 35848) | DRSC07253 | 1.50e5 | 4394 | inactive
Rtc1 (GeneID 32338) | DRSC20285 | 6899 | 748 | inactive
ND6 (retired record) (GeneID 192479) | DRSC21271 | 1.29e5 | 6101 | inactive
Nost (GeneID 8673992) | DRSC18037 | 38413 | 3027 | inactive
Nost (GeneID 8673992) | DRSC18338 | 47018 | 3633 | inactive
CG17364 (GeneID 39543) | DRSC10269 | 1.17e5 | 5034 | inactive
CG17364 (GeneID 39543) | DRSC10270 | 1.08e5 | 5250 | inactive
Strica (GeneID 35528) | DRSC04920 | 1.13e5 | 4488 | inactive
CG15571 (GeneID 31365) | DRSC18059 | 1.04e5 | 6126 | inactive
CG4962 (GeneID 39793) | DRSC10464 | 1.52e5 | 6226 | inactive
CG18744 (GeneID 59140) | DRSC15381 | 1.40e5 | 6807 | inactive
wts (GeneID 43651) | DRSC17096 | 69162 | 5050 | inactive
CG14659 (GeneID 40604) | DRSC12245 | 1.18e5 | 5597 | inactive
SoYb (GeneID 34331) | DRSC02901 | 1.57e5 | 4861 | inactive
Kmn1 (GeneID 32102) | DRSC19666 | 1.49e5 | 8720 | inactive
Tsen2 (GeneID 318956) | DRSC01557 | 1.38e5 | 7007 | inactive
Set (GeneID 41844) | DRSC16861 | 76019 | 3551 | inactive
Cyp6d2 (GeneID 37594) | DRSC04606 | 90298 | 4080 | inactive
CG6280 (GeneID 36522) | DRSC06972 | 1.11e5 | 4317 | inactive
CG14160 (GeneID 39177) | DRSC10161 | 1.25e5 | 6278 | inactive
Jon66Cii (GeneID 38953) | DRSC10778 | 1.03e5 | 4157 | inactive
CG42710 (GeneID 10178945) | DRSC01034 | 1.34e5 | 6259 | inactive
MrgBP (GeneID 35880) | DRSC06417 | 1.66e5 | 4819 | inactive
CG11584 (GeneID 32363) | DRSC19408 | 1.58e5 | 6262 | inactive
CG5883 (GeneID 39352) | DRSC10552 | 1.29e5 | 7273 | inactive
kl-2 (GeneID 3355181) | DRSC21136 | 1.37e5 | 6654 | inactive
CG13239 (GeneID 40503) | DRSC11694 | 1.43e5 | 7603 | inactive
Hsepi (GeneID 35569) | DRSC04986 | 97725 | 4553 | inactive
